The results in this text go back to patent US20070028316A1.

Chains of the proteins cited; added tags and fusions are not shown.
UniProt O43734: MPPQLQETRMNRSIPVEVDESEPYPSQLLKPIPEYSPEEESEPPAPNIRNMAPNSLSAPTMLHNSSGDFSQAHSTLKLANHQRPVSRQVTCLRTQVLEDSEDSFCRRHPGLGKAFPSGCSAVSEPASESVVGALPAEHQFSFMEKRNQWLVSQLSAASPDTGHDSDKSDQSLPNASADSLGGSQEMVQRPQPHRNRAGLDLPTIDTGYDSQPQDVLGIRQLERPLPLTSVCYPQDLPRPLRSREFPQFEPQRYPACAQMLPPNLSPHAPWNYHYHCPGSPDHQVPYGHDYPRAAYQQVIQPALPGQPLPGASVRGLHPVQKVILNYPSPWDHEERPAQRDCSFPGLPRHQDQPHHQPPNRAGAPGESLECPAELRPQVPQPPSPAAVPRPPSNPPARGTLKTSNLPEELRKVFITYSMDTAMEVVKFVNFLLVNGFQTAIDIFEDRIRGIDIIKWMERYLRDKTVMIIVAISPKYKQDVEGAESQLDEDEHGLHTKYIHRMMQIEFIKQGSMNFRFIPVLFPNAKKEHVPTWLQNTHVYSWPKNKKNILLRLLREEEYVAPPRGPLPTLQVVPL

Assay [1] deals with T1, FLAG-tagged human IL-17 receptor, full-length (human) (UniProt Q96F46).
T1 sequence (looked up): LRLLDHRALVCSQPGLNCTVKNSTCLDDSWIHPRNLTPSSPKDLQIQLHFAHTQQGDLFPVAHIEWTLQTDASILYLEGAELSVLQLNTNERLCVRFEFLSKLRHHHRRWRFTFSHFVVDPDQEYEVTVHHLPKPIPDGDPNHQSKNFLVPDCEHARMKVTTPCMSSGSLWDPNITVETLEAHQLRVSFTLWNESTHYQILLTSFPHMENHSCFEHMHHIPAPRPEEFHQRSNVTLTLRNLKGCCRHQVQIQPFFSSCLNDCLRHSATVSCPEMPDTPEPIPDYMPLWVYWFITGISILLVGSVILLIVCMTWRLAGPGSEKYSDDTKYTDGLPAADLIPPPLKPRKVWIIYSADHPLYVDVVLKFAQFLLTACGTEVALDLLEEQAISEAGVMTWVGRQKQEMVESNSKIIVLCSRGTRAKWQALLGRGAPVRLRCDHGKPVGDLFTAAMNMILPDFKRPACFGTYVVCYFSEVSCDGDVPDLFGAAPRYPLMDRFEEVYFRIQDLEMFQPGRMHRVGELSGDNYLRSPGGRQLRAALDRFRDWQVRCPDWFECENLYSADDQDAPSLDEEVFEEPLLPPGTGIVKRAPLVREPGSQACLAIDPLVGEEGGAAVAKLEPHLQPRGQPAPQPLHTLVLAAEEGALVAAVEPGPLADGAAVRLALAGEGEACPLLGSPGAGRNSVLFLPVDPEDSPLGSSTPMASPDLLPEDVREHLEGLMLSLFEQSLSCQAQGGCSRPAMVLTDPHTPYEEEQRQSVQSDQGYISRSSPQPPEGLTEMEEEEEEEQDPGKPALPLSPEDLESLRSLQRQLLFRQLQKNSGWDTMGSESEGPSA
Kind of assay: co-immunoprecipitation in transfected 293 cells, anti-FLAG (M2) IP, western blot for Act1.

The target in assay [2] is T1, FLAG-tagged human IL-17 receptor, full-length (human). Kind of assay: co-immunoprecipitation in transfected 293 cells, anti-FLAG (M2) IP, western blot for Act1 (FIG. 22).

Results are given in words; binding and its absence hold for the method and conditions named. Binding seen in cells or lysates may run through a third protein. Some entries that bind do so weakly or less than the wild type. Where a sequence is shown, tags or fusion partners need not be part of it.

Turning to “HA-tagged Act1 (pCMV-Act1) (from UniProt O43734 1-574)”, the binding result in assay [1] and in assay [2] was “binds” in each case.
